system: PC3 cells; assay: MTT assay, cytotoxic activity; assay type: cell-based, human; details: HaCaT vs PC3
Description: Metastatic prostate cancer (PC3) and human immortal keratinocyte (HaCaT) cell lines were purchased from the American Type Culture Collection (ATCC, Rockville, MD, USA) and cultured in MEM (minimal essential medium, Thermo Sci, USA), RPMI 1640 (Roswell Park Memorial Institute, Biowest SAS, France), and DMEM (Dulbecco’s Modified Eagle’s Medium, Biowest SAS, France). Cells were seeded in 6 mL medium in a tissue culture flask (50 mL) in a 37 °C/5% CO2 humidified incubator. […] MTT analysis was performed according to a previous study.[59] Untreated cells were used as controls. Cell absorbance results were inserted into the formula for the relative MTT level (%). It allows to calculate the viability of cells under the influence of the tested compounds. Cell viability was expressed as the percentage of MTT reduction in cells treated with tested compounds compared to the control sample. The relative MTT level was calculated using the formula [100%] = A/B × 100% where A—the test sample absorbance and B—the control sample absorbance.

SMILES	SI (IC50 normal cell line/IC50 cancer cell line)
O=C(O)c1cn(C2CC2)c2cc(N3CCN(CCCCC(=O)N4CCN(c5cc6c(cc5F)c(=O)c(C(=O)O)cn6C5CC5)CC4)CC3)c(F)cc2c1=O [Compound 19, CP–Pentanoyl–CP Dimer]	1.0
O=C(O)c1cn(C2CC2)c2cc(N3CCN(CCCC(=O)N4CCN(c5cc6c(cc5F)c(=O)c(C(=O)O)cn6C5CC5)CC4)CC3)c(F)cc2c1=O [Compound 18, CP–Butyryl–CP Dimer]	0.9
O=C(O)c1cn(C2CC2)c2cc(N3CCN(C(=O)CCCBr)CC3)c(F)cc2c1=O [Compound 10, 7-[4-(4-Bromobutyryl)-piperazin-1-yl]-1-cyclopropyl-6-fluoro-4-oxo-1,4-dihydro-quinoline-3-carboxylic Acid]	1.1
O=C(O)c1cn(C2CC2)c2cc(N3CCN(C(=O)CBr)CC3)c(F)cc2c1=O [Compound 8, 7-[4-(2-Bromoacetyl)-piperazin-1-yl]-1-cyclopropyl-6-fluoro-4-oxo-1,4-dihydro-quinoline-3-carboxylic Acid]	1.1
O=C(O)c1cn(C2CC2)c2cc(N3CCN(CCCCCCCCCCC(=O)N4CCN(c5cc6c(cc5F)c(=O)c(C(=O)O)cn6C5CC5)CC4)CC3)c(F)cc2c1=O [Compound 21, CP–Undecanoyl–CP Dimer]	15.2
O=C(O)c1cn(C2CC2)c2cc(N3CCN(C(=O)CCl)CC3)c(F)cc2c1=O [Compound 3, 7-[4-(2-Chloroacetyl)-piperazin-1-yl]-1-cyclopropyl-6-fluoro-4-oxo-1,4-dihydro-quinoline-3-carboxylic Acid]	17.6
C=CC(=O)N1CCN(c2cc3c(cc2F)c(=O)c(C(=O)O)cn3C2CC2)CC1 [Compound 1, 7-(4-Acryloyl-piperazin-1-yl)-1-cyclopropyl-6-fluoro-4-oxo-1,4-dihydro-quinoline-3-carboxylic Acid]	1.4
O=C(O)c1cn(C2CC2)c2cc(N3CCN(C(=O)CCCCBr)CC3)c(F)cc2c1=O [Compound 11, 7-[4-(5-Bromopentanoyl)-piperazin-1-yl]-1-cyclopropyl-6-fluoro-4-oxo-1,4-dihydro-quinoline-3-carboxylic Acid]	0.9
O=C(O)c1cn(C2CC2)c2cc(N3CCN(C(=O)CCCCCCl)CC3)c(F)cc2c1=O [Compound 7, 7-[4-(6-Chlorohexanoyl)-piperazin-1-yl]-1-cyclopropyl-6-fluoro-4-oxo-1,4-dihydro-quinoline-3-carboxylic Acid]	1
O=C(O)c1cn(C2CC2)c2cc(N3CCN(C(=O)CCC(F)(F)F)CC3)c(F)cc2c1=O [Compound 15, 7-[4-(4,4,4-Trifluorobutyryl)-piperazin-1-yl]-1-cyclopropyl-6-fluoro-4-oxo-1,4-dihydro-quinoline-3-carboxylic Acid]	5.4
O=C(O)c1cn(C2CC2)c2cc(N3CCN(C(=O)CCCl)CC3)c(F)cc2c1=O [Compound 4, 7-[4-(3-Chloropropionyl)-piperazin-1-yl]-1-cyclopropyl-6-fluoro-4-oxo-1,4-dihydro-quinoline-3-carboxylic Acid]	1.9
O=C(O)c1cn(C2CC2)c2cc(N3CCN(C(=O)CC(F)(F)F)CC3)c(F)cc2c1=O [Compound 14, 7-[4-(3,3,3-Trifluoropropionyl)-piperazin-1-yl]-1-cyclopropyl-6-fluoro-4-oxo-1,4-dihydro-quinoline-3-carboxylic Acid]	1.6
O=C(O)c1cn(C2CC2)c2cc(N3CCN(C(=O)CCCCCCCCCCBr)CC3)c(F)cc2c1=O [Compound 13, 7-[4-(11-Bromoundekanoyl)-piperazin-1-yl]-1-cyclopropyl-6-fluoro-4-oxo-1,4-dihydro-quinoline-3-carboxylic Acid]	2.7
O=C(O)c1cn(C2CC2)c2cc(N3CCN(C(=O)CCCC(F)(F)F)CC3)c(F)cc2c1=O [Compound 16, 7-[4-(5,5,5-Trifluoropentanoyl)-piperazin-1-yl]-1-cyclopropyl-6-fluoro-4-oxo-1,4-dihydro-quinoline-3-carboxylic Acid]	1.5
O=C(O)c1cn(C2CC2)c2cc(N3CCN(CC(=O)N4CCN(c5cc6c(cc5F)c(=O)c(C(=O)O)cn6C5CC5)CC4)CC3)c(F)cc2c1=O [Compound 17, CP–Acetyl–CP Dimer]	0.5
O=C(O)c1cn(C2CC2)c2cc(N3CCN(C(=O)CCBr)CC3)c(F)cc2c1=O [Compound 9, 7-[4-(3-Bromopropionyl)-piperazin-1-yl]-1-cyclopropyl-6-fluoro-4-oxo-1,4-dihydro-quinoline-3-carboxylic Acid]	1.4
O=C(O)c1cn(C2CC2)c2cc(N3CCN(C(=O)CCCCl)CC3)c(F)cc2c1=O [Compound 5, 7-[4-(4-Chlorobutyryl)-piperazin-1-yl]-1-cyclopropyl-6-fluoro-4-oxo-1,4-dihydro-quinoline-3-carboxylic Acid]	1.0
O=C(O)c1cn(C2CC2)c2cc(N3CCN(CCCCCC(=O)N4CCN(c5cc6c(cc5F)c(=O)c(C(=O)O)cn6C5CC5)CC4)CC3)c(F)cc2c1=O [Compound 20, CP–Hexanoyl–CP Dimer]	1.3
O=C(O)c1cn(C2CC2)c2cc(N3CCN(C(=O)C4CC4)CC3)c(F)cc2c1=O [Compound 2, 7-(4-Cyclopropanecarbonyl-piperazin-1-yl)-1-cyclopropyl-6-fluoro-4-oxo-1,4-dihydro-quinoline-3-carboxylic Acid]	0.9

From paper PMC10233829 (ACS Omega, 2023)
